Laboratory results: patent publication US20120238491A1 (THERIMUNEX PHARMACEUTICALS, INC., priority 2009, published 2012)

Assay: general procedure: peptide synthesis; H-Isoleucine-2-Chlorotrityl resin; HBTU
Conditions: lipidation step

Substance: 1-Peptidyl-2-arachidonoyl-3-stearoyl glyceride (pDAG); acALYDKGYTSKEQKDCVGI(DAG)
- step yield: 4%
- final HPLC purity (220 nm): 98.9%
